Literature values, collected in PMC10674299, “Discovery of Guanfacine as a Novel TAAR1 Agonist: A Combination Strategy through Molecular Modeling Studies and Biological Assays” (Pharmaceuticals, 2023).
A number of entries come with more than one value. The list is limited to them. The source may hold further records. Values that stand side by side differ for a reason that is not stated; some may be repeats, others may stem from another dose, organism or construct than stated.

Molecular target: α2-ADR
Details: read-out: α2-ADR Ki; cited from earlier work

For `CC(C)N(Cc1c[nH]cn1)c1ccccc1`, the Ki is given as 521 nM and 128 nM to 521 nM.
